This experiment concerns the target glutamate dehydrogenase (GDH) (bovine (endogenous in MAC-T)) (UniProt P00366). Nature of the experiment: co-IP.

Chains of the proteins cited; added tags and fusions are not shown. Residues count along the entry.
UniProt P00366, residues 58-558: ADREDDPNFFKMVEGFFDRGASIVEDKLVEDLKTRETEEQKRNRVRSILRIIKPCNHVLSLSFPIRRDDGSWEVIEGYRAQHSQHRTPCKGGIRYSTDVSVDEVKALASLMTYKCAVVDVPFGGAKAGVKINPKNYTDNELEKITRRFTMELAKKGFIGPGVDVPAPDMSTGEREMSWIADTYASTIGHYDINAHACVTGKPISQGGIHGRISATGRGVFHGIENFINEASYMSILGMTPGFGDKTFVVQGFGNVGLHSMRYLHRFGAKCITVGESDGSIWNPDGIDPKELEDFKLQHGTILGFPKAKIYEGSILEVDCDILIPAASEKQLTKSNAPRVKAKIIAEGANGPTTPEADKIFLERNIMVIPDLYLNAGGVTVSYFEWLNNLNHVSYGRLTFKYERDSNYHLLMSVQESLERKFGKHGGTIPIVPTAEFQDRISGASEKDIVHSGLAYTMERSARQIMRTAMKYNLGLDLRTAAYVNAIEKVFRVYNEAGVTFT
UniProt Q3ZBQ0, residues 37-310: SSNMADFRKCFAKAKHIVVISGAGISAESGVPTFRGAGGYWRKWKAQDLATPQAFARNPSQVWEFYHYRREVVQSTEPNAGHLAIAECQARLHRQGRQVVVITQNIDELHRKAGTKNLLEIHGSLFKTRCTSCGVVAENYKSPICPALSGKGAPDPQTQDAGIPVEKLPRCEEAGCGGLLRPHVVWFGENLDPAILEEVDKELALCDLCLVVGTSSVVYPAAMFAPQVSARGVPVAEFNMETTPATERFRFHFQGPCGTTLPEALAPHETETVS

This note sets out measurements from doi:10.1101/2024.08.26.609685.

No constants are given. Whether binding was seen depends on the method and setting. In cells and extracts the contact can be indirect. Some entries that bind do so weakly or less than the wild type.

Regarding “Sirtuin 5 (SIRT5) (from UniProt Q3ZBQ0 37-310) (enzyme)”, the binding entry was “binds”.
